pKi: −log10 of the molar value. For at least one compound, name, drawing or mass did not settle the structure.
Molecular target: CCK-A receptor
Test: CCK-A receptor binding
Experimental: The biological activity of compounds of the present invention may be evaluated by employing an initial screening test which rapidly and accurately measures the binding of the tested compound to known CCK receptor sites. […] (See Hays, et al., Neuropeptides 1:53-62, 1980; and Satuer, et al., Science 208:1155-1156, 1980).
In displacement experiments, inhibition curves were analyzed by either logit-log plots or the iterative curve fitting computer program ALLFIT (DeLean, Munson, and Redbard, 1978) to provide estimates of the IC50 and nH (apparent Hill coefficient values). (IC50 values were defined as the concentration of test compound required to produce 50% inhibition of specific binding).
The inhibition constant (Ki) of the test compound was then calculated according to the Cheng-Prusoff equation: [formula] where [L] is the concentration of radiolabel and Ka is the equilibrium dissociation constant.
The Ki values for several representative compounds of the present invention are present in Table 1.
The following table represents the CCK-A and CCK-B receptor binding affinities of the compounds. [drawing 34]
The testing procedures are disclosed in Hays, et al., Neuropeptides 1:53-62, 1980; and Satuer, et al., Science 208:1155-1156, 1980.

SMILES: CC(C)Oc1cccc(-n2c(CNC(=O)OCc3ccccc3)nc3ccccc3c2=O)c1
- pKi: 5.35

From patent US5756502A, “Quinazolinone derivatives as cholyecystokinin (CCK) ligands” (Warner-Lambert Company, priority 1995, dated 1998)
